Test results taken from patent US20040072170A1.
No constants are given. Whether binding was seen depends on the method and setting. Binding calls can cover weak binding; strength is not graded here.

What was measured:
Ubc9 (P50550) (human) = assay: yeast two-hybrid screen, 66214pep as bait against a human heart cDNA library
Rad6 (U38785) (human) = assay: as above

binding (Ubc9 (P50550) (human)): binds | binding (Rad6 (U38785) (human)): binds
B1: 66214pep (protein)
chain: MYMSKQPVSNVRAIQANINIPMGAFRPGAGQPPRRKECTPEVEEGVPPTSDEEKKPIPGAKKLPGPAVNLSEIQNIKSELKYVPKAEQ
